Data: PMC12715526
No constants are given. Whether binding was seen depends on the method and setting. For some assays here: Binding calls can cover weak binding; strength is not graded here. Tags and fused reporters may be left off the sequences shown.

Assays:
[1] = biological target: T1, second motif "GSLSLGVN" of GhAIL6 in the BD vector (Gossypium hirsutum); experiment: two-hybrid; GAL4 system (Clontech), Y2HGold yeast; GhAIL6 motif in BD (pGBKT7), GhTPL1 in AD (pGADT7); growth on SD/-Leu-Trp and SD/-Leu-Trp-His-Ade
T1 sequence: GSLSLGVN

[2] = biological target: T2, first motif "FPGHSNCP" of GhAIL6 in the BD vector (Gossypium hirsutum); experiment: as above
T2 sequence: FPGHSNCP

binding [1]: binds
binding [2]: no binding
Substance: GhTPL1 in the AD vector (pGADT7) (Gossypium hirsutum)
